Among the data in paper PMC9485788 are binding values, retold here.

The chains behind the UniProt entries cited, without tags or fusion partners. Residues count along the entry.
UniProt P05067, residues 672-713: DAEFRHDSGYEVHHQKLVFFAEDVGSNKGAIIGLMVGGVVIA

For the experiment, the target named is β-Amyloid peptide 1–42 (Aβ_(1–42)) (UniProt P05067). As to the kind of experiment: pull-down; Aβ1-42 immobilised on protein A/G magnetic beads; supernatant of lysate of transfected Vero cells (24 h) mixed with the beads at 4 °C for 2 h; Western blot with anti-SCARB2 or anti-HA antibody; only the target purified. (In general: In western blotting, separated proteins are transferred to a membrane and probed.)

No constants are given. Whether binding was seen depends on the method and setting. In cells and extracts the contact can be indirect. Some results given as binding are weak or reduced against the parent protein; the word gives no strength. Tags and fused reporters may be left off the sequences shown.

B1: SCARB2-Myc (scavenger receptor class B member 2) (receptor, UniProt Q14108 1-478)
chain: MGRCCFYTAGTLSLLLLVTSVTLLVARVFQKAVDQSIEKKIVLRNGTEAFDSWEKPPLPVYTQFYFFNVTNPEEILRGETPRVEEVGPYTYRELRNKANIQFGDNGTTISAVSNKAYVFERDQSVGDPKIDLIRTLNIPVLTVIEWSQVHFLREIIEAMLKAYQQKLFVTHTVDELLWGYKDEILSLIHVFRPDISPYFGLFYEKNGTNDGDYVFLTGEDSYLNFTKIVEWNGKTSLDWWITDKCNMINGTDGDSFHPLITKDEVLYVFPSDFCRSVYITFSDYESVQGLPAFRYKVPAEILANTSDNAGFCIPEGNCLGSGVLNVSICKNGAPIIMSFPHFYQADERFVSAIEGMHPNQEDHETFVDINPLTGIILKAAKRFQINIYVKKLDDFVETGDIRTMVFPVMYLNESVHIDKETASRLKSMINTTLIITNIPYIIMALGVFFGLVFTWLACKGQGSMDEGTADERAPLIRT
As to B1, the binding result is given as “binds”.
